Experimental data: publication doi:10.1101/2025.07.01.662673

Protein sequences, listed by entry. Tags and fused reporters are not part of them. Residues count along the entry.
UniProt P31431, residues 19-198: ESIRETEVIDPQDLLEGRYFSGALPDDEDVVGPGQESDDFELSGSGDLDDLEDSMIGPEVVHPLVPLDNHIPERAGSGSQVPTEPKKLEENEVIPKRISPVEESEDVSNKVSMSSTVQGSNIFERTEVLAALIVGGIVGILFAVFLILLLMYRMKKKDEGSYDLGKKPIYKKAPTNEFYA

Target: T1, Kallikrein-related peptidase 8 (human) (UniProt O60259)
T1 sequence: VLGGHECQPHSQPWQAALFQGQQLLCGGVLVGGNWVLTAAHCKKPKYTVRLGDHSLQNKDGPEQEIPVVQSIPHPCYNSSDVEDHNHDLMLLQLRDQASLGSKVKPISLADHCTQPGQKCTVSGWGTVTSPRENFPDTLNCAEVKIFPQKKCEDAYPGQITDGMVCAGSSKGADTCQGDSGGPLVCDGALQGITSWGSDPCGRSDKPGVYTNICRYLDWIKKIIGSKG
Assay: affinity purification with mass spectrometry

binding: binds
Substance: syndecan-4 (from UniProt P31431 19-198)

These are yes or no findings as the source states them, for the method shown. Binding seen in cells or lysates may run through a third protein. A yes stands for co-enrichment or nearness to the bait. Other partners may have been found.
